From patent US20250171534A1
Where a chain is given by its changes, count along the chain named. These are yes or no findings as the source states them, for the method shown. Some entries that bind do so weakly or less than the wild type.

By UniProt entry, the sequences of proteins in these tests, tags left out. Where a name states a change or a piece, a line headed by the entry shows the natural chain unless it says otherwise. Residues count along the entry.
UniProt O75019, residues 17-489: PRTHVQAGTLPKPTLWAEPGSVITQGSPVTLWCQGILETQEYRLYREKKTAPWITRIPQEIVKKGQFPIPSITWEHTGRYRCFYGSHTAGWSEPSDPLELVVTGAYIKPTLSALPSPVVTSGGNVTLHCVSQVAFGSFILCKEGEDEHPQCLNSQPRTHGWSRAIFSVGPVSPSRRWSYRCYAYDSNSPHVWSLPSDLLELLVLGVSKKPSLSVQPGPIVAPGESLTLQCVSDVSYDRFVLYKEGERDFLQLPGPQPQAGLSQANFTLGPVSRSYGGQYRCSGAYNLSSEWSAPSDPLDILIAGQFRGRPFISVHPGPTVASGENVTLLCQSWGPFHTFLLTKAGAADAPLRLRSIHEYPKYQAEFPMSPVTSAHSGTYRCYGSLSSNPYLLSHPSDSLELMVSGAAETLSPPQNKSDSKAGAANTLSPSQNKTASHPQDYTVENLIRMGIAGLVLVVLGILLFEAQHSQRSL
UniProt Q8N423: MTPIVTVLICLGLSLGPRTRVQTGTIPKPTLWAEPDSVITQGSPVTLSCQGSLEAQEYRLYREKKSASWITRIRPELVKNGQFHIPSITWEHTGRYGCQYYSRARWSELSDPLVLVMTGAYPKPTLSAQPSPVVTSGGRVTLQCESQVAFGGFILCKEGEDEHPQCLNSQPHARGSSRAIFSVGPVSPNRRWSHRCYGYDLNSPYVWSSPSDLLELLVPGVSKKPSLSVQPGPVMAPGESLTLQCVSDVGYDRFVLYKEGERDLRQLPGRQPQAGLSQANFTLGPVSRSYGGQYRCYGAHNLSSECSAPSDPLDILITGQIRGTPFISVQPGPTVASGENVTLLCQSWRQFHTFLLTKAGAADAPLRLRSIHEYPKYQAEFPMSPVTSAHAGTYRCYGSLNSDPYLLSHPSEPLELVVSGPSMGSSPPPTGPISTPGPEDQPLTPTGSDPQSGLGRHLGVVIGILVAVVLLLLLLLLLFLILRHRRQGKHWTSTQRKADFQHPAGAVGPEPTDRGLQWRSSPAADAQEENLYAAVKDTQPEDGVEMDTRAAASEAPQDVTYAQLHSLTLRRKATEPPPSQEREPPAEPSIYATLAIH
UniProt Q8NHL6: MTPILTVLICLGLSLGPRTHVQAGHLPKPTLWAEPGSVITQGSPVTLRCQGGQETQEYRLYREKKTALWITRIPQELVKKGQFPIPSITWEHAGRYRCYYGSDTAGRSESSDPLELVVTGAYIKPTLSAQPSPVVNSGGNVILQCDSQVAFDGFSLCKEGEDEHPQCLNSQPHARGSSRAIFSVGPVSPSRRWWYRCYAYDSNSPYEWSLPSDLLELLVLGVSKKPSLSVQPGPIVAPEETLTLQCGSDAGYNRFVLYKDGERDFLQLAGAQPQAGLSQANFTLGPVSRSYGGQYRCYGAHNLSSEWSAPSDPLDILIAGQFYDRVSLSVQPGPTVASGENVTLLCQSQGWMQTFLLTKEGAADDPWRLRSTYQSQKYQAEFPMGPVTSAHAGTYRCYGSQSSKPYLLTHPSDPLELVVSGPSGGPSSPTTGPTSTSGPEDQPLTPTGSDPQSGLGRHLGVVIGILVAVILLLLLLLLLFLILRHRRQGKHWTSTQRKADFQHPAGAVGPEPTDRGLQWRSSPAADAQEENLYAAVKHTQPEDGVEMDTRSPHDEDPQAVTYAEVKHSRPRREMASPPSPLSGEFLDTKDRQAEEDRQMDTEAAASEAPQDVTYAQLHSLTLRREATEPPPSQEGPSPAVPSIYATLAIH
UniProt O75022, residues 24-631: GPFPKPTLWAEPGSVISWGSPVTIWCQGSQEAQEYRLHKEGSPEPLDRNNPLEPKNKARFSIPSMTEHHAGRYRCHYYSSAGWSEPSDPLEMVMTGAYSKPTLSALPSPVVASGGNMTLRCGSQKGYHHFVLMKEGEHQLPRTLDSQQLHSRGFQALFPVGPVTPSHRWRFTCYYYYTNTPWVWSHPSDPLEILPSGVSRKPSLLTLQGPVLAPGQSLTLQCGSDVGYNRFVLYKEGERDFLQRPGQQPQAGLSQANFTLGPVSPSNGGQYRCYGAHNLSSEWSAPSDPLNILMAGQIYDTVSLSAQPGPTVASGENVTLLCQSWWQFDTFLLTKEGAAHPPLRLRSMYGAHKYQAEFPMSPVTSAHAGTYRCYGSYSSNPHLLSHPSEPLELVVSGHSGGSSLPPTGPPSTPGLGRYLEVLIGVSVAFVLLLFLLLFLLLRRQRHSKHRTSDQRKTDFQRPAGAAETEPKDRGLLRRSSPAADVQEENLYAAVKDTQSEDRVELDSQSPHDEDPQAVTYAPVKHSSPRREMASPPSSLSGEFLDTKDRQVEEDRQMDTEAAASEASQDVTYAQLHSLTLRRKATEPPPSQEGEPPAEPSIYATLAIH
UniProt Q6PI73, residues 24-481: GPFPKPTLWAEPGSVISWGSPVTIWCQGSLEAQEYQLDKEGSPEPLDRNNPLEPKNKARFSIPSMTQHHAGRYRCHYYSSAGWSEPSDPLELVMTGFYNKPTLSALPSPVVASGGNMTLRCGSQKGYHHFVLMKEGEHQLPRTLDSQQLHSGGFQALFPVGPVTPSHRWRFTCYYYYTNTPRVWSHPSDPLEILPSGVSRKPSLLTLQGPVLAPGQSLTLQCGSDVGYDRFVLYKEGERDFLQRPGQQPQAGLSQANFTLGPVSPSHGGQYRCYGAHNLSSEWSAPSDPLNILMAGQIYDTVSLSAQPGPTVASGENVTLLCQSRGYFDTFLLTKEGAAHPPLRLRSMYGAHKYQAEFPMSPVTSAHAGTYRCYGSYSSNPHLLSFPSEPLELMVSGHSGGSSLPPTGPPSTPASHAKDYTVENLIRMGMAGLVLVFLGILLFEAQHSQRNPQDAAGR

Tests used:
[1] = target: LILRA1 expressed on cells (human) (UniProt O75019); experiment: flow cytometry on CHO-LILRA1 cells
[2] = target: LILRA1 expressed on cells (human) (UniProt O75019); experiment: flow cytometry on CHO-LILRA1 cells (CHO-RA1), titrated antibody, labelled anti-human Fc, gMFI
[3] = target: human LILRB2 expressed on cells (human) (UniProt Q8N423); experiment: flow cytometry, CHO-LILRB2 cells
[4] = target: human LILRB2 expressed on cells (human) (UniProt Q8N423); experiment: told in the legend of FIG. 21; assay not named
[5] = target: human LILRB2 expressed on cells (human) (UniProt Q8N423); experiment: told in the legend of FIG. 22; assay not named
[6] = target: human LILRB2 expressed on cells (human) (UniProt Q8N423); experiment: flow cytometry, Jurkat-LILRB2 cells
[7] = target: human LILRB1 expressed on cells (human) (UniProt Q8NHL6); experiment: flow cytometry, Jurkat-LILRB1 cells
[8] = target: human LILRB1 expressed on cells (human) (UniProt Q8NHL6); experiment: flow cytometry, Jurkat-LILRB1 cells; blocked ligand: APC HLA-G trimer tetramer
[9] = target: human LILRB2 expressed on cells (human) (UniProt Q8N423); experiment: flow cytometry, Jurkat-LILRB2 cells; blocked ligand: APC HLA-G monomer tetramer
[10] = target: LILRB3 expressed on cells (human) (UniProt O75022); experiment: flow cytometry on CHO-LILRB3 cells (CHO-RB3), titrated antibody, labelled anti-human Fc, gMFI
[11] = target: LILRA6 expressed on cells (human) (UniProt Q6PI73); experiment: flow cytometry on CHO-LILRA6 cells (CHO-RA6), titrated antibody, labelled anti-human Fc, gMFI
[12] = target: LILRA6 expressed on cells (human) (UniProt Q6PI73); experiment: flow cytometry on CHO-LILRA6 cells
[13] = target: LILRB3 expressed on cells (human) (UniProt O75022); experiment: flow cytometry on CHO-LILRB3 cells
[14] = target: LILRB3 expressed on cells (human) (UniProt O75022); experiment: flow cytometry on CHO-LILRB3 cells, titrated antibody, APC anti-hFc, gMFI
[15] = target: LILRA6 expressed on cells (human) (UniProt Q6PI73); experiment: flow cytometry on 293T cells transiently expressing LILRA6, antibody 5 µg/mL, APC anti-human Fc; gMFI as fold to IgG staining
[16] = target: LILRB3 expressed on cells (human) (UniProt O75022); experiment: flow cytometry on 293T cells transiently expressing LILRB3, antibody 5 µg/mL, APC anti-human Fc; gMFI as fold to IgG staining
[17] = target: LILRB3 expressed on cells (human) (UniProt O75022); experiment: flow cytometry on transiently transfected 293T cells, 5 µg/mL antibody
[18] = target: LILRA1 expressed on cells (human) (UniProt O75019); experiment: as above
[19] = target: LILRA6 expressed on cells (human) (UniProt Q6PI73); experiment: as above
[20] = target: LILRA1 expressed on cells (human) (UniProt O75019); experiment: flow cytometry on 293T cells transiently expressing LILRA1, antibody 5 µg/mL, APC anti-human Fc; gMFI as fold to IgG staining
[21] = target: human LILRB1 expressed on cells (human) (UniProt Q8NHL6); experiment: flow cytometry, CHO-LILRB1 cells
[22] = target: human LILRB1 expressed on cells (human) (UniProt Q8NHL6); experiment: flow cytometry, CHO-LILRB1 cells; blocked ligand: APC HLA-G trimer tetramer

Measured: binding

B1: D2M002-126 (antibody, V domains shown)
VH: QVQLVQSGAEVKKPGASVKVSCKASGYTFTSYWIEWVRQAPGQGLEWIGEILPGDESTNYNAKFKGRVTFTTDTSTSTAYMELRSLRSDDTAVYYCARSGAGGYDSGAFAYWGQGTLVTVSS
VL: AIQLTQSPSSLSASVGDRVTITCRASESVDTYGNSFMHWYQQKPGKAPKLLVYRTSNLESGVPSRFSGSGSGTDFTLTISSLQPEDFATYYCQQSNEDPWTFGGGTKVEIK
binds: [1] | [2]

B2: D2M002-044 (antibody, human IgG1, V domains shown)
VH: EVQLQQSGAELVRPGALVKLSCKGSGFNIKDYYMHWVRQRPEQGLEWIGWIDPENGNTVYAPKFQGKASITSDTSSNIAYLQFSSLTSEDTAVYYCARSRDHGAMDYWGQGTSVTVSS
VL: DVQITQSPAIMSASPGEKVTLTCSASSSVSSSNLYWYQQKPGSSPKLWIYSTSNLASGVPARFSGSGFGTSYALTISSMEAEDAASYFCHQWSSYPYTFGGGTKLEIK
binds: [3] | [4] | [5]

B3: D2M002-101 (antibody, V domains shown)
VH: QVQLVQSGAEVKKPGASVKVSCKASGYTFTRYVMHWVRQAPGQRLEWMGWINPNNEETKYSQKFKGRVTLTRDTSASTAYMELSSLRSEDTAVYYCARADLEILPYYDHARNAMDYWGQGTLVTVSS
VL: DIQMTQSPSSVSASVGDRVTITCRASENIYSHLAWYQQKPGKAPKLLVYNAKSLQSGVPSRFSGSGSGTDFTLTISSLQPEDFATYYCQHFWSTPPTFGGGTKVEIK
binds: [6] | [7] | [8] | [9]

B4: D2M002-103HV1 (antibody, V domains shown)
VH: B3 VH with M48I, W50Y, N112Y
VL: B3 VL
binds: [10] | [1] | [11] | [2] | [12] | [13]

B5: D2M002-002 (antibody, V domains shown)
VH: EVQLQQSGPELVKPGASVKMSCKASGYTFTRYVMHWVKQKPGQGLEWIGYINPNNDGTKYNEKFKGKVTLTSDKSSSTAYMELSSLTSEDSAVYYCARGDLEILPYYDHARNAMDYWGQGTSVTVSS
VL: DVQMIQSPASLSASVGETVTITCRASENIYSYLAWYQQKQGKSPQLLVYNAKTLAEGVPSRFSGSGSGTQFSLKINSLQPEDFGSYYCQHFWSTPPTFGGGTKLEIK
not listed: [3] | [4] | [5] | [6] | [7] | [8] | [9] | [21] | [22]
binds: all other assays above

B6: #27 (antibody, human IgG1, V domains shown)
VH: EVQLQQSGAELMKPGASVKISCKITGYTFSSYWIEWVKQRPGHDLEWIGEILPGSGSTNYNEKFKGKASFTADTSSNTAYMQLNSLTSEDSAVYYCARSGAGGYDSGAFAYWGQGTLVTVSA
VL: DIVLTQSPASLAVSLGQRATISCRASESVDTYGNSFMHWYQQKPGQPPKLLIYRTSNLESGIPARFSGSGSRTDFTLTINPVEADDVATYYCQQSNEDPWTFGGGTKLEIK
binds: [3] | [21] | [22]

B7: D2M002-026 (antibody, V domains shown)
VH: QVQLQQPGAELMKPGASVKISCKATGYTFSSYWIEWVKQRPGHGLEWIGEILPGDGSTNYNAKFKGQATFTADTSSNTAYMQFSSLTSEDSAVYYCARSGAGGYDSGAFAYWGQGTLVTVSS
VL: B6 VL with I52V, R72G
binds: [1] | [2] | [18] | [20]
